Data taken from the supplement of paper PMC8728848.
This is one part of the list.

Columns and labels:
Assay in all cases: glycan array binding signal (z-score within array); higher = stronger binding
Details in all cases: glycan notation: IUPAC condensed, linker removed
[1] = biological target: Gal(b1-4)GlcNAc(b1-2)Man(a1-6)[GlcNAc(b1-2)Man(a1-3)]Man(b1-4)GlcNAc(b1-4)GlcNAc
In short: (§1)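 Glycan array data came from 3228 arrays in the Consortium for Functional Glycomics database, and only arrays with an available protein sequence were kept. Glycan names were put into IUPAC-condensed notation, and columns mapping to the same glycan were averaged. The binding signal is a within-array Z-score, averaged across arrays of one protein sequence run at different concentrations or buffers and across linkers. A negative Z-score can be read as non-binding.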

[2] = biological target: Gal(b1-4)GlcNAc(b1-2)Man(a1-6)[Man(a1-3)]Man(b1-4)GlcNAc(b1-4)GlcNAc
In short: as §1

[3] = biological target: Gal(b1-4)GlcNAc(b1-2)[Gal(b1-4)GlcNAc(b1-4)]Man(a1-3)[Gal(b1-4)GlcNAc(b1-2)Man(a1-6)]Man(b1-4)GlcNAc(b1-4)GlcNAc
In short: as §1

[4] = biological target: Gal(b1-4)GlcNAc(b1-2)[Gal(b1-4)GlcNAc(b1-4)]Man(a1-3)[Gal(b1-4)GlcNAc(b1-2)[Gal(b1-4)GlcNAc(b1-6)]Man(a1-6)]Man(b1-4)GlcNAc(b1-4)GlcNAc
In short: as §1

[5] = biological target: Gal(b1-4)GlcNAc(b1-2)[Gal(b1-4)GlcNAc(b1-4)]Man(a1-3)[GlcNAc(b1-4)][Gal(b1-4)GlcNAc(b1-2)Man(a1-6)]Man(b1-4)GlcNAc(b1-4)GlcNAc
In short: as §1

[6] = biological target: Gal(b1-4)GlcNAc(b1-2)[Gal(b1-4)GlcNAc(b1-4)]Man(a1-3)[GlcNAc(b1-4)][Gal(b1-4)GlcNAc(b1-2)[Gal(b1-4)GlcNAc(b1-6)]Man(a1-6)]Man(b1-4)GlcNAc(b1-4)GlcNAc
In short: as §1

[7] = biological target: Gal(b1-4)GlcNAc(b1-2)[Gal(b1-4)GlcNAc(b1-6)]Man(a1-6)[Gal(b1-4)GlcNAc(b1-2)Man(a1-3)]Man(b1-4)GlcNAc(b1-4)GlcNAc
In short: as §1

[8] = biological target: Gal(b1-4)GlcNAc(b1-2)[Gal(b1-4)GlcNAc(b1-6)]Man(a1-6)[Gal(b1-4)GlcNAc(b1-2)Man(a1-3)]Man(b1-4)GlcNAc(b1-4)[Fuc(a1-6)]GlcNAc
In short: as §1

[9] = biological target: Gal(b1-4)GlcNAc(b1-2)[Gal(b1-4)GlcNAc(b1-6)]Man(a1-6)[GlcNAc(b1-4)][Gal(b1-4)GlcNAc(b1-2)Man(a1-3)]Man(b1-4)GlcNAc(b1-4)GlcNAc
In short: as §1

[10] = biological target: Gal(b1-4)GlcNAc(b1-2)[Gal(b1-4)GlcNAc(b1-6)]Man(a1-6)[GlcNAc(b1-4)][Gal(b1-4)GlcNAc(b1-2)[Gal(b1-4)GlcNAc(b1-4)]Man(a1-3)]Man(b1-4)GlcNAc(b1-4)[Fuc(a1-6)]GlcNAc
In short: as §1

[11] = biological target: Gal(b1-4)GlcNAc(b1-3)Gal(b1-3)GalNAc
In short: as §1

[12] = biological target: Gal(b1-4)GlcNAc(b1-3)Gal(b1-3)GlcNAc
In short: as §1

[13] = biological target: Gal(b1-4)GlcNAc(b1-3)Gal(b1-4)Glc
In short: as §1

[14] = biological target: Gal(b1-4)GlcNAc(b1-3)Gal(b1-4)GlcNAc
In short: as §1

[15] = biological target: Gal(b1-4)GlcNAc(b1-3)Gal(b1-4)GlcNAc(b1-2)Man(a1-3)[Gal(b1-4)GlcNAc(b1-3)Gal(b1-4)GlcNAc(b1-2)Man(a1-6)]Man(b1-4)GlcNAc(b1-4)GlcNAc
In short: as §1

[16] = biological target: Gal(b1-4)GlcNAc(b1-3)Gal(b1-4)GlcNAc(b1-2)Man(a1-3)[Gal(b1-4)GlcNAc(b1-3)Gal(b1-4)GlcNAc(b1-2)Man(a1-6)]Man(b1-4)GlcNAc(b1-4)[Fuc(a1-6)]GlcNAc
In short: as §1

[17] = biological target: Gal(b1-4)GlcNAc(b1-3)Gal(b1-4)GlcNAc(b1-2)[Gal(b1-4)GlcNAc(b1-3)Gal(b1-4)GlcNAc(b1-6)]Man(a1-6)[Gal(b1-4)GlcNAc(b1-3)Gal(b1-4)GlcNAc(b1-2)Man(a1-3)]Man(b1-4)GlcNAc(b1-4)GlcNAc
In short: as §1

[18] = biological target: Gal(b1-4)GlcNAc(b1-3)Gal(b1-4)GlcNAc(b1-2)[Gal(b1-4)GlcNAc(b1-3)Gal(b1-4)GlcNAc(b1-6)]Man(a1-6)[Gal(b1-4)GlcNAc(b1-3)Gal(b1-4)GlcNAc(b1-2)Man(a1-3)]Man(b1-4)GlcNAc(b1-4)[Fuc(a1-6)]GlcNAc
In short: as §1

[19] = biological target: Gal(b1-4)GlcNAc(b1-3)Gal(b1-4)GlcNAc(b1-3)Gal(b1-4)GlcNAc
In short: as §1

[20] = biological target: Gal(b1-4)GlcNAc(b1-3)Gal(b1-4)GlcNAc(b1-3)Gal(b1-4)GlcNAc(b1-2)Man(a1-3)[Gal(b1-4)GlcNAc(b1-3)Gal(b1-4)GlcNAc(b1-3)Gal(b1-4)GlcNAc(b1-2)Man(a1-6)]Man(b1-4)GlcNAc(b1-4)GlcNAc
In short: as §1

[21] = biological target: Gal(b1-4)GlcNAc(b1-3)Gal(b1-4)GlcNAc(b1-3)Gal(b1-4)GlcNAc(b1-2)Man(a1-3)[Gal(b1-4)GlcNAc(b1-3)Gal(b1-4)GlcNAc(b1-3)Gal(b1-4)GlcNAc(b1-2)Man(a1-6)]Man(b1-4)GlcNAc(b1-4)[Fuc(a1-6)]GlcNAc
In short: as §1

[22] = biological target: Gal(b1-4)GlcNAc(b1-3)Gal(b1-4)GlcNAc(b1-3)Gal(b1-4)GlcNAc(b1-2)[Gal(b1-4)GlcNAc(b1-3)Gal(b1-4)GlcNAc(b1-3)Gal(b1-4)GlcNAc(b1-6)]Man(a1-6)[Gal(b1-4)GlcNAc(b1-3)Gal(b1-4)GlcNAc(b1-3)Gal(b1-4)GlcNAc(b1-2)Man(a1-3)]Man(b1-4)GlcNAc(b1-4)[Fuc(a1-6)]GlcNAc
In short: as §1

B1: DCIR1 (Mus musculus), Q9QZ15 (protein)
chain: MASEITYAEVKFKNESNSLHTYSESPAAPREKPIRDLRKPGSPSLLLTSLMLLLLLLAITFLVAFIIYFQKYSQLLEEKKAAKNIMHNELNCTKSVSPMEDKVWSCCPKDWRLFGSHCYLVPTVSSSASWNKSEENCSRMGAHLVVIQSQEEQDFITGILDTHAAYFIGLWDTGHRQWQWVDQTPYEESITFWHNGEPSSGNEKCATIIYRWKTGWGWNDISCSLKQKSVCQMKKINL
glycan array binding signal (z-score) [1]: 0.904 | glycan array binding signal (z-score) [2]: 0.023 | glycan array binding signal (z-score) [3]: -0.372 | glycan array binding signal (z-score) [4]: -0.824 | glycan array binding signal (z-score) [5]: -0.162 | glycan array binding signal (z-score) [6]: 0.65 | glycan array binding signal (z-score) [7]: -0.475 | glycan array binding signal (z-score) [8]: -0.037 | glycan array binding signal (z-score) [9]: -0.446 | glycan array binding signal (z-score) [10]: -0.026 | glycan array binding signal (z-score) [11]: -0.978 | glycan array binding signal (z-score) [12]: -0.389 | glycan array binding signal (z-score) [13]: -0.63 | glycan array binding signal (z-score) [14]: -0.298 | glycan array binding signal (z-score) [15]: 1.45 | glycan array binding signal (z-score) [16]: 0.884 | glycan array binding signal (z-score) [17]: 1.13 | glycan array binding signal (z-score) [18]: 0.06 | glycan array binding signal (z-score) [19]: 0.272 | glycan array binding signal (z-score) [20]: 0.668 | glycan array binding signal (z-score) [21]: -0.075 | glycan array binding signal (z-score) [22]: -0.524
